Strings that start with PEPTIDE1 are HELM notation: dots part the residues, brackets hold end groups and non-standard residues.
Test: general procedure: peptide synthesis; EDC/HBT
Conditions: coupling step

## PEPTIDE1{[ac].P.L.G.[SLeu].L.G.[OEt]}$$$$V2.0
  step yield: 73%

Reference: patent US4596675A (Monsanto Company, priority 1985, dated 1986)
